The results are deposited in PubChem (AID504749; NCATS, 2011).

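A panel of P. falciparum strains inside erythrocytes is exposed to compounds for three days, then a DNA-binding dye reports the amount of parasite DNA.
Each compound was titrated across a series from about 0.000037 to 29 µM.
The number is the fitted AC50, the concentration giving a half-maximal change in signal; a lower value means higher potency, whether the curve shows a decrease or an increase.
Calls follow the curve class and fit quality: every row here is inconclusive, covering signal-raising curves and weak, poorly fitted, partial or highest-dose-only inhibition curves.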

Values are in nM.
All entries here are filed as inconclusive.
Only part of the assay is shown, chiefly results filed as inconclusive.
Potencies fitted to partial, single-point or poorly fitting curves are rough.

{"structure": "COC1OC(CO)C(OC2OC(C(=O)O)C(OC3OC(COS(=O)(=O)O)C(OC4OC(C(=O)O)C(OC5OC(CO)C(OC6OC(C(=O)O)C(OC7OC(COS(=O)(=O)O)C(OC8OC(C(=O)O)=C[C@H](O)C8OS(=O)(=O)O)C(O)C7NC(C)=O)[C@@H](O)C6O)C(O)C5NC(C)=O)[C@@H](O)C4O)C(O)C3NC(C)=O)[C@@H](O)C2O)C(O)C1NC(C)=O", "stereo": "stereo partly drawn", "tested on / at": "DIV17", "Potency (nM)": "19011", "curve": "inhibitor, single point"}
{"structure": "COC1OC(CO)C(OC2OC(C(=O)O)C(OC3OC(COS(=O)(=O)O)C(OC4OC(C(=O)O)C(OC5OC(CO)C(OC6OC(C(=O)O)C(OC7OC(COS(=O)(=O)O)C(OC8OC(C(=O)O)=C[C@H](O)C8OS(=O)(=O)O)C(O)C7NC(C)=O)[C@@H](O)C6O)C(O)C5NC(C)=O)[C@@H](O)C4O)C(O)C3NC(C)=O)[C@@H](O)C2O)C(O)C1NC(C)=O", "stereo": "stereo partly drawn", "tested on / at": "ATS95", "Potency (nM)": "11220", "curve": "inhibitor, single point"}
{"structure": "COC1OC(CO)C(OC2OC(C(=O)O)C(OC3OC(COS(=O)(=O)O)C(OC4OC(C(=O)O)C(OC5OC(CO)C(OC6OC(C(=O)O)C(OC7OC(COS(=O)(=O)O)C(OC8OC(C(=O)O)=C[C@H](O)C8OS(=O)(=O)O)C(O)C7NC(C)=O)[C@@H](O)C6O)C(O)C5NC(C)=O)[C@@H](O)C4O)C(O)C3NC(C)=O)[C@@H](O)C2O)C(O)C1NC(C)=O", "stereo": "stereo partly drawn", "tested on / at": "TAB165", "Potency (nM)": "17782", "curve": "inhibitor, single point"}
{"structure": "COC1OC(CO)C(OC2OC(C(=O)O)C(OC3OC(COS(=O)(=O)O)C(OC4OC(C(=O)O)C(OC5OC(CO)C(OC6OC(C(=O)O)C(OC7OC(COS(=O)(=O)O)C(OC8OC(C(=O)O)=C[C@H](O)C8OS(=O)(=O)O)C(O)C7NC(C)=O)[C@@H](O)C6O)C(O)C5NC(C)=O)[C@@H](O)C4O)C(O)C3NC(C)=O)[C@@H](O)C2O)C(O)C1NC(C)=O", "stereo": "stereo partly drawn", "tested on / at": "SC27B", "Potency (nM)": "17782", "curve": "inhibitor, single point"}
{"structure": "COC1OC(CO)C(OC2OC(C(=O)O)C(OC3OC(COS(=O)(=O)O)C(OC4OC(C(=O)O)C(OC5OC(CO)C(OC6OC(C(=O)O)C(OC7OC(COS(=O)(=O)O)C(OC8OC(C(=O)O)=C[C@H](O)C8OS(=O)(=O)O)C(O)C7NC(C)=O)[C@@H](O)C6O)C(O)C5NC(C)=O)[C@@H](O)C4O)C(O)C3NC(C)=O)[C@@H](O)C2O)C(O)C1NC(C)=O", "stereo": "stereo partly drawn", "tested on / at": "AA1029", "Potency (nM)": "17782", "curve": "inhibitor, single point"}
{"structure": "COC1OC(CO)C(OC2OC(C(=O)O)C(OC3OC(COS(=O)(=O)O)C(OC4OC(C(=O)O)C(OC5OC(CO)C(OC6OC(C(=O)O)C(OC7OC(COS(=O)(=O)O)C(OC8OC(C(=O)O)=C[C@H](O)C8OS(=O)(=O)O)C(O)C7NC(C)=O)[C@@H](O)C6O)C(O)C5NC(C)=O)[C@@H](O)C4O)C(O)C3NC(C)=O)[C@@H](O)C2O)C(O)C1NC(C)=O", "stereo": "stereo partly drawn", "tested on / at": "HB3", "Potency (nM)": "17782", "curve": "inhibitor, single point"}
{"structure": "COC1OC(CO)C(OC2OC(C(=O)O)C(OC3OC(COS(=O)(=O)O)C(OC4OC(C(=O)O)C(OC5OC(CO)C(OC6OC(C(=O)O)C(OC7OC(COS(=O)(=O)O)C(OC8OC(C(=O)O)=C[C@H](O)C8OS(=O)(=O)O)C(O)C7NC(C)=O)[C@@H](O)C6O)C(O)C5NC(C)=O)[C@@H](O)C4O)C(O)C3NC(C)=O)[C@@H](O)C2O)C(O)C1NC(C)=O", "stereo": "stereo partly drawn", "tested on / at": "GB4", "Potency (nM)": "19011", "curve": "inhibitor, single point"}
{"structure": "COC1OC(CO)C(OC2OC(C(=O)O)C(OC3OC(COS(=O)(=O)O)C(OC4OC(C(=O)O)C(OC5OC(CO)C(OC6OC(C(=O)O)C(OC7OC(COS(=O)(=O)O)C(OC8OC(C(=O)O)=C[C@H](O)C8OS(=O)(=O)O)C(O)C7NC(C)=O)[C@@H](O)C6O)C(O)C5NC(C)=O)[C@@H](O)C4O)C(O)C3NC(C)=O)[C@@H](O)C2O)C(O)C1NC(C)=O", "stereo": "stereo partly drawn", "tested on / at": "P94_40", "Potency (nM)": "12589", "curve": "inhibitor, single point"}
{"structure": "COC1OC(CO)C(OC2OC(C(=O)O)C(OC3OC(COS(=O)(=O)O)C(OC4OC(C(=O)O)C(OC5OC(CO)C(OC6OC(C(=O)O)C(OC7OC(COS(=O)(=O)O)C(OC8OC(C(=O)O)=C[C@H](O)C8OS(=O)(=O)O)C(O)C7NC(C)=O)[C@@H](O)C6O)C(O)C5NC(C)=O)[C@@H](O)C4O)C(O)C3NC(C)=O)[C@@H](O)C2O)C(O)C1NC(C)=O", "stereo": "stereo partly drawn", "tested on / at": "DIV30", "Potency (nM)": "6746", "curve": "inhibitor, partial curve, poor fit"}
{"structure": "COC1OC(CO)C(OC2OC(C(=O)O)C(OC3OC(COS(=O)(=O)O)C(OC4OC(C(=O)O)C(OC5OC(CO)C(OC6OC(C(=O)O)C(OC7OC(COS(=O)(=O)O)C(OC8OC(C(=O)O)=C[C@H](O)C8OS(=O)(=O)O)C(O)C7NC(C)=O)[C@@H](O)C6O)C(O)C5NC(C)=O)[C@@H](O)C4O)C(O)C3NC(C)=O)[C@@H](O)C2O)C(O)C1NC(C)=O", "stereo": "stereo partly drawn", "tested on / at": "DFO2036", "Potency (nM)": "17782", "curve": "inhibitor, single point"}
{"structure": "COC1OC(CO)C(OC2OC(C(=O)O)C(OC3OC(COS(=O)(=O)O)C(OC4OC(C(=O)O)C(OC5OC(CO)C(OC6OC(C(=O)O)C(OC7OC(COS(=O)(=O)O)C(OC8OC(C(=O)O)=C[C@H](O)C8OS(=O)(=O)O)C(O)C7NC(C)=O)[C@@H](O)C6O)C(O)C5NC(C)=O)[C@@H](O)C4O)C(O)C3NC(C)=O)[C@@H](O)C2O)C(O)C1NC(C)=O", "stereo": "stereo partly drawn", "tested on / at": "AS120", "Potency (nM)": "17782", "curve": "inhibitor, single point"}
{"structure": "COC1OC(CO)C(OC2OC(C(=O)O)C(OC3OC(COS(=O)(=O)O)C(OC4OC(C(=O)O)C(OC5OC(CO)C(OC6OC(C(=O)O)C(OC7OC(COS(=O)(=O)O)C(OC8OC(C(=O)O)=C[C@H](O)C8OS(=O)(=O)O)C(O)C7NC(C)=O)[C@@H](O)C6O)C(O)C5NC(C)=O)[C@@H](O)C4O)C(O)C3NC(C)=O)[C@@H](O)C2O)C(O)C1NC(C)=O", "stereo": "stereo partly drawn", "tested on / at": "PC49", "Potency (nM)": "17782", "curve": "inhibitor, single point"}
{"structure": "COC1OC(CO)C(OC2OC(C(=O)O)C(OC3OC(COS(=O)(=O)O)C(OC4OC(C(=O)O)C(OC5OC(CO)C(OC6OC(C(=O)O)C(OC7OC(COS(=O)(=O)O)C(OC8OC(C(=O)O)=C[C@H](O)C8OS(=O)(=O)O)C(O)C7NC(C)=O)[C@@H](O)C6O)C(O)C5NC(C)=O)[C@@H](O)C4O)C(O)C3NC(C)=O)[C@@H](O)C2O)C(O)C1NC(C)=O", "stereo": "stereo partly drawn", "tested on / at": "CP215", "Potency (nM)": "13459", "curve": "inhibitor, single point"}
{"structure": "COC1OC(CO)C(OC2OC(C(=O)O)C(OC3OC(COS(=O)(=O)O)C(OC4OC(C(=O)O)C(OC5OC(CO)C(OC6OC(C(=O)O)C(OC7OC(COS(=O)(=O)O)C(OC8OC(C(=O)O)=C[C@H](O)C8OS(=O)(=O)O)C(O)C7NC(C)=O)[C@@H](O)C6O)C(O)C5NC(C)=O)[C@@H](O)C4O)C(O)C3NC(C)=O)[C@@H](O)C2O)C(O)C1NC(C)=O", "stereo": "stereo partly drawn", "tested on / at": "PC26", "Potency (nM)": "11995", "curve": "inhibitor, single point"}